According to PubChem BioAssay AID2685 (National Center for Advancing Translational Sciences (NCATS), 2010):
The list shows a part of the results. Further columns of the screen follow, without active or inactive calls. Compounds called inactive in the main read-out are mostly missing here. Potencies come from curve fits of mixed quality, noted in brackets.

Experiment: qHTS Assay for Lipid Storage Modulators in Drosophila S3 Cells;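 as to cell number change: cells counted by Cell Tracker Red CMTPX staining in the red channel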
Conditions: BODIPY lipid droplet fluorescence, 18-24 h; for cell number change: measured here: cell count max response, cells fed with added oleic acid
Procedure, shortened: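 Drosophila S3 cells got compounds at several concentrations plus oleic acid (400 uM solution). Laser-scanning cytometry with 488 nm excitation read lipid droplets at 500-530 nm and cells at 575-640 nm. Percent activity was relative to 20 uM Triacsin C.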

[1] = measured here: lipid fluorescence (Fed channel) AC50, cells fed with added oleic acid
[2] = measured here: cell number channel AC50, cells fed with added oleic acid

Compound	cell number change [%]	AC50 [1]	AC50 [2]
Cc1ccc(S(=O)(=O)Oc2ccc(/C=N/NC(=O)c3ccncc3)cc2)cc1	35.5	0.562 µM [rising, single point]	
CCN(CC)CCCN1C(=O)C(O)=C(C(=O)c2cc3ccccc3o2)C1c1ccccn1 (stereo not given)	56	29.1 µM [rising, single point]	29.1 µM [rising, single point]
CCOC(=O)N1CCC(Nc2c(N3CCN(c4cc(Cl)ccc4C)CC3)c(=O)c2=O)CC1	-41.2	29.1 µM [falling, single point]	29.1 µM [falling, single point]
COc1ccc(-c2noc(CCCOc3ccc(Cl)cc3Cl)n2)cc1	-1.41		
CC1CN(c2cc(-c3ccccc3)c3ccccc3n2)CC(C)O1 (stereo not given)	13.7	0.082 µM [falling, full curve, poor fit]	
O=[N+]([O-])c1cc(Cl)ccc1Oc1ccc(-c2nnco2)cc1		0.00411 µM [falling, full curve, poor fit]	
O=C(NC(Cc1c[nH]c2ccccc12)C(=O)Nc1ccc(OC(F)(F)F)cc1)c1cccs1 (stereo not given)	-9.62		
O=Cc1ccccc1-c1cn(CN2C(=O)c3ccccc3C2=O)nn1	30.1	0.58 µM [rising, single point]	1.46 µM [rising, full curve, poor fit]
CCCN1CCN(C(=O)CCc2nnc3ccc(N4CCN(c5cccc(OC)c5)CC4)nn23)CC1	0.288	8.2 µM [falling, partial curve]	
C=CCn1c(SCc2csc(C)n2)nc2scc(-c3ccc(C)o3)c2c1=O	-52.9		32.6 µM [falling, partial curve]
COc1cc([N+](=O)[O-])ccc1NC(=O)CSc1nccn1C			0.00517 µM [rising, full curve, poor fit]
CC(=O)Nc1ccc(NC(=O)CSc2nnc(NC(=O)C3CC(=O)N(c4ccc(F)cc4)C3)s2)cc1 (stereo not given)	-28.9		
COc1ccc(C(=O)Oc2ccc3ccc(=O)oc3c2)cc1OC	19.8	0.082 µM [rising, full curve, poor fit]	
CC(CC(=O)Nc1ccc2c(c1)OCCO2)c1ccccc1 (stereo not given)		0.651 µM [falling, single point]	
CC(=O)N1CCc2cc(S(=O)(=O)N3CCCCC3C)ccc21 (stereo not given)	-14.2	1.84 µM [falling, partial curve]	
Cc1cccc(NC(=S)N2CCC(NC(=O)c3ccco3)CC2)c1	-8.12	29.1 µM [rising, single point]	
COc1cccc(N=Cc2c[nH][nH]c2=O)c1	44	25.9 µM [rising, single point]	3.66 µM [rising, partial curve]
CCCn1c(SCC(=O)NC(C)C23CC4CC(CC(C4)C2)C3)n[nH]c1=O (stereo not given)	-32.4	29.1 µM [falling, single point]	16.4 µM [falling, single point]

At a glance, part of the list above:
Compound	cell number change [%]	AC50 [1]	AC50 [2]
COc1ccc(-c2noc(CCCOc3ccc(Cl)cc3Cl)n2)cc1	-1.41		
CC1CN(c2cc(-c3ccccc3)c3ccccc3n2)CC(C)O1 (stereo not given)	13.7	0.082 µM [falling, full curve, poor fit]	

(cont.)

Compound	cell number change [%]	AC50 [1]	AC50 [2]
CCOC(=O)N1CCN(Cc2nc3c(c(=O)n(C)c(=O)n3C)n2CCCc2ccccc2)CC1	1.12	0.651 µM [rising, single point]	
Brc1ccc(OCCOCCN2CCOCC2)cc1	16.7	29.1 µM [falling, single point]	
COc1cc(/C=C2/C(=O)CNC2=O)ccc1O	-40.9	0.92 µM [falling, full curve]	0.82 µM [falling, full curve]
Cn1cnnc1SCC(=O)c1ccc(O)c(O)c1	-17.8	1.64 µM [falling, single point]	4.11 µM [falling, single point]
COc1ccc(-c2[nH]ncc2C=O)cc1	-1.63	9.2 µM [rising, partial curve]	
O=C(CSc1nnc(SCc2ccc(F)cc2)s1)Nc1ccc(C(=O)O)cc1		14.6 µM [rising, partial curve]	
CCc1c(C)[nH]c(C(=O)OCc2ccccc2)c1C	-31.9	32.6 µM [falling, single point]	29.1 µM [falling, single point]
COc1ccc(C)cc1NC(=O)CO/N=C(\N)CC(=O)Nc1ccccc1OC	12.8	0.00461 µM [rising, full curve, poor fit]	
Cc1ccc(-c2nc3cnccn3c2Nc2ccc3c(c2)OCO3)cc1		0.58 µM [rising, partial curve, poor fit]	
N/C(CN1CCCCC1)=N\S(=O)(=O)c1cc(Cl)cc(Cl)c1	7	6.51 µM [falling, single point]	6.51 µM [falling, single point]
COc1ccc(/C=C/C(=O)NCCCN2CCCCCC2)cc1	37.9	29.1 µM [rising, single point]	11.6 µM [rising, partial curve]
CC(=O)c1ccc(OC(=O)C2CC(=O)N(c3cccc(C)c3)C2)cc1 (stereo not given)	-18.4	3.26 µM [falling, full curve]	1.16 µM [falling, full curve, poor fit]
COc1ccc(C2NC(=O)CCC2[N+](=O)[O-])cc1OC (stereo not given)	-4.99	0.103 µM [rising, full curve, poor fit]	
O=C(O)c1cc(S(=O)(=O)N2CCOCC2)ccc1N1CCCCC1	-103		
COc1ccc(CNCCNC(=O)c2cccs2)c(OC)c1OC	11.2	32.6 µM [rising, single point]	
Cc1ccc(-n2nc3c(=O)n(CC(=O)NCCC4=CCCCC4)nc(C)c3c2C)cc1	-10.2	1.03 µM [rising, full curve]	
c1ccc2c(c1)OCC(c1nnc3sc(-c4ccc5c(c4)OCO5)nn13)O2 (stereo not given)	2.97	4.11 µM [rising, full curve, poor fit]	
CCOC(=O)c1c(C)oc2c1C(=O)c1ccccc1C2=O	-38.1	23.1 µM [falling, single point]	23.1 µM [falling, single point]
